Experimental data taken from the supplement of paper PMC4604168 (melanoma cell lines).
The other results are listed elsewhere or left out. Single values are uncertain, as repeats are few or missing.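 The apoptosis fraction was the count of cleaved-PARP antibody-stained nuclei relative to all DNA-stained nuclei, imaged in 1,536-well plates. Screening doses were set so most cells survived, and baseline and induced cleaved-PARP levels vary greatly across cell lines.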

What was measured:
Test in all cases: cleaved PARP positive nuclei fraction relative to DMSO control; melanoma cells; higher = more apoptosis
Settings in all cases: library dose: low library concentration; 72 h
501Mel = system: 501Mel
A101D = system: A101D
A2058 = system: A2058
A375 = system: A375
C32 = system: C32
CBRC008 = system: CBRC008 (line from a melanoma biopsy)
CBRC014 = system: CBRC014 (line from a melanoma biopsy)
CBRC016 = system: CBRC016 (line from a melanoma biopsy)
CBRC017 = system: CBRC017 (line from a melanoma biopsy)
CBRC034 = system: CBRC034 (line from a melanoma biopsy)
COLO792 = system: COLO792
COLO800 = system: COLO800
COLO829 = system: COLO829
G361 = system: G361
IPC-298 = system: IPC-298
IST-MEL1 = system: IST-MEL1
LB2518-MEL = system: LB2518-MEL
LOXIMVI = system: LOXIMVI
MEL-HO = system: MEL-HO

Compound	cleaved PARP positive nuclei fraction (501Mel) [%]	cleaved PARP positive nuclei fraction (A101D) [%]	cleaved PARP positive nuclei fraction (A2058) [%]	cleaved PARP positive nuclei fraction (A375) [%]	cleaved PARP positive nuclei fraction (C32) [%]	cleaved PARP positive nuclei fraction (CBRC008) [%]	cleaved PARP positive nuclei fraction (CBRC014) [%]	cleaved PARP positive nuclei fraction (CBRC016) [%]	cleaved PARP positive nuclei fraction (CBRC017) [%]	cleaved PARP positive nuclei fraction (CBRC034) [%]	cleaved PARP positive nuclei fraction (COLO792) [%]	cleaved PARP positive nuclei fraction (COLO800) [%]	cleaved PARP positive nuclei fraction (COLO829) [%]	cleaved PARP positive nuclei fraction (G361) [%]	cleaved PARP positive nuclei fraction (IPC-298) [%]	cleaved PARP positive nuclei fraction (IST-MEL1) [%]	cleaved PARP positive nuclei fraction (LB2518-MEL) [%]	cleaved PARP positive nuclei fraction (LOXIMVI) [%]	cleaved PARP positive nuclei fraction (MEL-HO) [%]
CS(=O)(=O)CCNCc1ccc(-c2ccc3ncnc(Nc4ccc(OCc5cccc(F)c5)c(Cl)c4)c3c2)o1 [lapatinib] + Clc1ccc(Nc2nnc(Cc3ccncc3)c3ccccc23)cc1 [vatalanib] (first compound 0.8 µM, partner dose 2 µM)	138	46.7	74	57.1	74.7	171	196	72.9	121	144	116	20.3	136	134	125	148	52.4	121	68.5
CC(C)C[C@H](NC(=O)[C@H](Cc1ccccc1)NC(=O)c1cnccn1)B(O)O [Bortezomib] + COCC[n+]1c2c(n(Cc3cnccn3)c1C)C(=O)c1ccccc1C2=O [YM155] (first compound 0.001 µM, partner dose 0.0004 µM)	170	191	89.4	247	248	1460	221	219	200	67.2	97.4	129	82.1	1770	99.2	116	720	87	130
O=C(O)c1ccc2c(c1)nc(Nc1cccc(Cl)c1)c1ccncc12 + Nc1ccn([C@@H]2O[C@H](CO)[C@@H](O)C2(F)F)c(=O)n1 [gemcitabine] (first compound 0.4 µM, partner dose 0.0004 µM)	46.9	39.2	146	101	72.9	263	176	367	262	492	201	94.4	223	91.3	392	193	73.4	452	135
CNC(=O)c1cc(Oc2ccc(NC(=O)Nc3ccc(Cl)c(C(F)(F)F)c3)cc2)ccn1 [sorafenib] + Clc1ccc(Nc2nnc(Cc3ccncc3)c3ccccc23)cc1 [vatalanib] (first compound 0.4 µM, partner dose 2 µM)	58.2	95.2	106	106	138	41.5	107	140	110	220	99.2	107	61.1	155	123	70.4	22.6	55.5	200
Nc1ccn([C@@H]2O[C@H](CO)[C@@H](O)C2(F)F)c(=O)n1 [gemcitabine] + Nc1ncn([C@H]2C[C@H](O)[C@@H](CO)O2)c(=O)n1 [decitabine] (first compound 0.0004 µM, partner dose 0.1 µM)	56.9	171	108	137	38.4	134	136	242	144	130	87.5	159	275	79.6	43.7	408	113	93	41.1
C[C@@H](Oc1cc(-c2cnn(C3CCNCC3)c2)cnc1N)c1c(Cl)ccc(F)c1Cl [Crizotinib] + CCCS(=O)(=O)Nc1ccc(F)c(C(=O)c2c[nH]c3ncc(Cl)cc23)c1F [PLX4720] (first compound 0.2 µM, partner dose 0.08 µM)	63.2	92.7	33.8	175	86.1	128	98.5	101	82.6	43.3	50.4	80.1	46.3	101	187	61.1	99.1	216	175
Cn1c(=O)n(-c2ccc(C(C)(C)C#N)cc2)c2c3cc(-c4cnc5ccccc5c4)ccc3ncc21 + C[C@@H](Oc1cc(-c2cnn(C3CCNCC3)c2)cnc1N)c1c(Cl)ccc(F)c1Cl [Crizotinib] (first compound 0.004 µM, partner dose 0.2 µM)	159	58.6	79.8	210	132	64.5	101	100	109	66.6	53.4	142	83.4	229	81.9	71.8	61.1	85.2	173
C[C@@H](Oc1cc(-c2cnn(C3CCNCC3)c2)cnc1N)c1c(Cl)ccc(F)c1Cl [Crizotinib] + Clc1ccc(Nc2nnc(Cc3ccncc3)c3ccccc23)cc1 [vatalanib] (first compound 0.2 µM, partner dose 2 µM)	333	150	115	36.5	82.5	45.1	108	103	109	134	76.2	88.3	150	161	85.3	85.4	224	116	122
C=C(c1ccc(C(=O)O)cc1)c1cc2c(cc1C)C(C)(C)CCC2(C)C [Bexarotene] + CCCS(=O)(=O)Nc1ccc(F)c(C(=O)c2c[nH]c3ncc(Cl)cc23)c1F [PLX4720] (first compound 2 µM, partner dose 0.08 µM)	101	159	47.8	102	76.8	264	111	391	207	69.8	177	151	61.9	110	88.8	135	92.6	28.2	136
Nc1nc(F)nc2c1ncn2[C@@H]1O[C@H](CO)[C@@H](O)[C@@H]1O [fludarabine] + Clc1ccc(Nc2nnc(Cc3ccncc3)c3ccccc23)cc1 [vatalanib] (first compound 0.2 µM, partner dose 2 µM)	19600	199	77.8	1450	81.7	165	107	217	118	63.5	80.8	103	160	86.9	104	639	117	212	77.6
Cc1cc(Nc2cc(N3CCN(C)CC3)nc(/C=C/c3ccccc3)n2)n[nH]1 + Cn1c(=O)n(-c2ccc(C(C)(C)C#N)cc2)c2c3cc(-c4cnc5ccccc5c4)ccc3ncc21 [NVP-BEZ235] (first compound 0.04 µM, partner dose 0.004 µM)	69.3	119	13.5	320	75.4	24.9	86.1	46.9	103	61.7	175	52.7	104	78.9	42.8	53.4	60.6	90.1	75.3
Nc1ccn([C@@H]2O[C@H](CO)[C@@H](O)C2(F)F)c(=O)n1 [gemcitabine] + CC(=O)c1c(C)c2cnc(Nc3ccc(N4CCNCC4)cn3)nc2n(C2CCCC2)c1=O [palbociclib] (first compound 0.0004 µM, partner dose 0.04 µM)	212	167	120	220	64.3	167	139	145	124	38.2	116	97.1	141	150	207	149	133	67.5	86.9
CCCS(=O)(=O)Nc1ccc(F)c(C(=O)c2c[nH]c3ncc(Cl)cc23)c1F + Clc1ccc(Nc2nnc(Cc3ccncc3)c3ccccc23)cc1 [vatalanib] (first compound 0.08 µM, partner dose 2 µM)	50.3	105	39.9	267	88.1	197	134	145	114	143	37.7	93.3	76.5	61.7	96.7	123	92.2	112	264
CC(C)C[C@H](NC(=O)[C@H](Cc1ccccc1)NC(=O)c1cnccn1)B(O)O [Bortezomib] + C[C@]1(c2nc3c(C(N)=O)cccc3[nH]2)CCCN1 [Veliparib] (first compound 0.001 µM, partner dose 1.4 µM)	516	92.9	122	236	91.8	252	207	132	225	126	108	157	126	926	97.7	263	230	54.6	126
Nc1ncn([C@H]2C[C@H](O)[C@@H](CO)O2)c(=O)n1 [decitabine] + CC(=O)c1c(C)c2cnc(Nc3ccc(N4CCNCC4)cn3)nc2n(C2CCCC2)c1=O [palbociclib] (first compound 0.1 µM, partner dose 0.04 µM)	67.1	182	178	61.5	76.9	41.2	109	113	132	91.4	97.7	64.7	124	236	133	96	134	39.5	141
CS(=O)(=O)CCNCc1ccc(-c2ccc3ncnc(Nc4ccc(OCc5cccc(F)c5)c(Cl)c4)c3c2)o1 [lapatinib] + C=CCNC1=C2C[C@@H](C)C[C@H](OC)[C@H](O)[C@@H](C)/C=C(\C)[C@H](OC(N)=O)[C@@H](OC)/C=C\C=C(/C)C(=O)NC(=CC1=O)C2=O [Tanespimycin] (first compound 0.8 µM, partner dose 0.002 µM)	66.2	48.9	102	187	84.8	81.8	112	96	102	58.2	103	96.3	91.6	76.6	39	63.1	69.6	71.1	80

Pulled one by one from the entries so far (2):
Compound	cleaved PARP positive nuclei fraction (501Mel) [%]	cleaved PARP positive nuclei fraction (A101D) [%]	cleaved PARP positive nuclei fraction (A2058) [%]	cleaved PARP positive nuclei fraction (A375) [%]	cleaved PARP positive nuclei fraction (C32) [%]	cleaved PARP positive nuclei fraction (CBRC008) [%]	cleaved PARP positive nuclei fraction (CBRC014) [%]	cleaved PARP positive nuclei fraction (CBRC016) [%]	cleaved PARP positive nuclei fraction (CBRC017) [%]	cleaved PARP positive nuclei fraction (CBRC034) [%]	cleaved PARP positive nuclei fraction (COLO792) [%]	cleaved PARP positive nuclei fraction (COLO800) [%]	cleaved PARP positive nuclei fraction (COLO829) [%]	cleaved PARP positive nuclei fraction (G361) [%]	cleaved PARP positive nuclei fraction (IPC-298) [%]	cleaved PARP positive nuclei fraction (IST-MEL1) [%]	cleaved PARP positive nuclei fraction (LB2518-MEL) [%]	cleaved PARP positive nuclei fraction (LOXIMVI) [%]	cleaved PARP positive nuclei fraction (MEL-HO) [%]
CS(=O)(=O)CCNCc1ccc(-c2ccc3ncnc(Nc4ccc(OCc5cccc(F)c5)c(Cl)c4)c3c2)o1 [lapatinib] + Clc1ccc(Nc2nnc(Cc3ccncc3)c3ccccc23)cc1 [vatalanib] (first compound 0.8 µM, partner dose 2 µM)	138	46.7	74	57.1	74.7	171	196	72.9	121	144	116	20.3	136	134	125	148	52.4	121	68.5
CNC(=O)c1cc(Oc2ccc(NC(=O)Nc3ccc(Cl)c(C(F)(F)F)c3)cc2)ccn1 [sorafenib] + Clc1ccc(Nc2nnc(Cc3ccncc3)c3ccccc23)cc1 [vatalanib] (first compound 0.4 µM, partner dose 2 µM)	58.2	95.2	106	106	138	41.5	107	140	110	220	99.2	107	61.1	155	123	70.4	22.6	55.5	200
